Measured values published in patent US20180057462A1, “Substituted 2-difluoromethyl-nicotin(thio)carboxanilide derivatives and their use as fungicides” (BAYER CROPSCIENCE AKTIENGESELLSCHAFT, priority 2015, published 2018).
Some entries share one result that the patent states for a list of compounds.

What was measured:
Puccinia recondita = assay: In vivo preventive test on Puccinia recondita (brown rust on wheat); conditions: 100 ppm of active ingredient, wheat plants sprayed, evaluated 11 days after inoculation, 100% = no disease
Uromyces appendiculatus = assay: In vivo preventive test on Uromyces appendiculatus (bean rust); conditions: 100 ppm of active ingredient, bean plants sprayed, evaluated 11 days after inoculation, 100% = no disease
Phakopsora pachyrhizi = assay: In vivo preventive test on Phakopsora (soybeans); conditions: 10 ppm of active ingredient, soybean plants sprayed, evaluated 7 days after inoculation, 100% = no disease

Measured: efficacy

Cc1c(NC(=O)c2cccnc2C(F)F)cccc1C1CCCC1 [Example 121]
at least 70%: Puccinia recondita | Uromyces appendiculatus | Phakopsora pachyrhizi
